# The list shows a part of the results.
# B1: Epa2 (Candida glabrata) (protein)
# chain: MGSSHHHHHHSSGLVPRGSHMASSKDPTSFPMGCSPQVLKTQPGLAVKLYSYGHPVPGCAYNTYQYPDFPRSGYKKERKLADITGVNGRIDIDLKPNDPCRVLSGNLPSNYNYQNTLTYTNFTMILYGYFQPKVTGYHTFNLEADDLLFMNLGAGNAFDCCRAESTLDNFGNYQSYSIWGTDKATADLTVFLVSGIYYPIRLFYVNRDNNAVLDFSFSTEFNKEIIHDFTSYFFSASDEEQCPGNI
# Tests used:
# Assay in all cases: glycan array binding signal (z-score within array); higher = stronger binding
# Conditions in all cases: glycan notation: IUPAC condensed, linker removed
# [1] = target: Neu5Ac(a2-3)Gal(b1-3)GlcNAc
# In short: (§1)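 Arrays were curated from the Consortium for Functional Glycomics database, 3228 in total, and kept only where the protein sequence was available. Binding is expressed as a within-array Z-score. This score was averaged across arrays of the same protein sequence at different concentrations or buffers and across linkers, and negative values can be read as non-binding.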
# [2] = target: Neu5Ac(a2-3)Gal(b1-3)GlcNAc(b1-2)Man
# In short: as §1
# [3] = target: Neu5Ac(a2-3)Gal(b1-3)GlcNAc(b1-2)Man(a1-3)[GlcNAc(b1-4)][Neu5Ac(a2-3)Gal(b1-3)GlcNAc(b1-2)Man(a1-6)]Man(b1-4)GlcNAc(b1-4)GlcNAc
# In short: as §1
# [4] = target: Neu5Ac(a2-3)Gal(b1-3)GlcNAc(b1-2)Man(a1-3)[Neu5Ac(a2-3)Gal(b1-3)GlcNAc(b1-2)Man(a1-6)]Man(b1-4)GlcNAc(b1-4)GlcNAc
# In short: as §1
# [5] = target: Neu5Ac(a2-3)Gal(b1-3)GlcNAc(b1-2)[Neu5Ac(a2-3)Gal(b1-3)GlcNAc(b1-4)]Man(a1-6)[Neu5Ac(a2-3)Gal(b1-3)GlcNAc(b1-2)Man(a1-3)]Man(b1-4)GlcNAc(b1-4)GlcNAc
# In short: as §1
# [6] = target: Neu5Ac(a2-3)Gal(b1-3)GlcNAc(b1-3)Gal(b1-3)GlcNAc
# In short: as §1
# [7] = target: Neu5Ac(a2-3)Gal(b1-3)GlcNAc(b1-3)Gal(b1-4)GlcNAc
# In short: as §1
# [8] = target: Neu5Ac(a2-3)Gal(b1-3)GlcNAc(b1-3)GalNAc
# In short: as §1
# [9] = target: Neu5Ac(a2-3)Gal(b1-3)GlcNAc(b1-6)GalNAc
# In short: as §1
# [10] = target: Neu5Ac(a2-3)Gal(b1-3)GlcNAc6S
# In short: as §1
# [11] = target: Neu5Ac(a2-3)Gal(b1-3)[Fuc(a1-4)]GlcNAc
# In short: as §1
# [12] = target: Neu5Ac(a2-3)Gal(b1-3)[Fuc(a1-4)]GlcNAc(b1-3)Gal(b1-3)[Fuc(a1-4)]GlcNAc
# In short: as §1
# [13] = target: Neu5Ac(a2-3)Gal(b1-3)[Fuc(a1-4)]GlcNAc(b1-3)Gal(b1-4)[Fuc(a1-3)]GlcNAc
# In short: as §1
# [14] = target: Neu5Ac(a2-3)Gal(b1-3)[GlcNAc(b1-6)]GalNAc
# In short: as §1
# [15] = target: Neu5Ac(a2-3)Gal(b1-3)[Neu5Ac(a2-6)]GalNAc
# In short: as §1
# [16] = target: Neu5Ac(a2-3)Gal(b1-3)[Neu5Ac(a2-6)]GlcNAc(b1-3)[Fuc(a1-3)[Gal(b1-4)]GlcNAc(b1-6)]Gal(b1-4)Glc
# In short: as §1
# [17] = target: Neu5Ac(a2-3)Gal(b1-3)]Neu5Ac(a2-3)Gal(b1-4)]GlcNAc
# In short: as §1
# [18] = target: Neu5Ac(a2-3)Gal(b1-4)Glc
# In short: as §1
# [19] = target: Neu5Ac(a2-3)Gal(b1-4)GlcNAc
# In short: as §1
# [20] = target: Neu5Ac(a2-3)Gal(b1-4)GlcNAc(b1-2)Man
# In short: as §1
# [21] = target: Neu5Ac(a2-3)Gal(b1-4)GlcNAc(b1-2)Man(a1-3)[GlcNAc(b1-4)][Neu5Ac(a2-3)Gal(b1-4)GlcNAc(b1-2)Man(a1-6)]Man(b1-4)GlcNAc(b1-4)GlcNAc
# In short: as §1
# [22] = target: Neu5Ac(a2-3)Gal(b1-4)GlcNAc(b1-2)Man(a1-3)[Neu5Ac(a2-3)Gal(b1-4)GlcNAc(b1-2)Man(a1-6)]Man(b1-4)GlcNAc(b1-4)GlcNAc
# In short: as §1
# [23] = target: Neu5Ac(a2-3)Gal(b1-4)GlcNAc(b1-2)Man(a1-3)[Neu5Ac(a2-3)Gal(b1-4)GlcNAc(b1-2)Man(a1-6)]Man(b1-4)GlcNAc(b1-4)[Fuc(a1-6)]GlcNAc
# In short: as §1
# [24] = target: Neu5Ac(a2-3)Gal(b1-4)GlcNAc(b1-2)Man(a1-3)[Neu5Ac(a2-6)Gal(b1-4)GlcNAc(b1-2)Man(a1-6)]Man(b1-4)GlcNAc(b1-4)GlcNAc
# In short: as §1
# [25] = target: Neu5Ac(a2-3)Gal(b1-4)GlcNAc(b1-2)[Neu5Ac(a2-3)Gal(b1-4)GlcNAc(b1-4)]Man(a1-3)[GlcNAc(b1-4)][Neu5Ac(a2-3)Gal(b1-4)GlcNAc(b1-2)[Neu5Ac(a2-3)Gal(b1-4)GlcNAc(b1-6)]Man(a1-6)]Man(b1-4)GlcNAc(b1-4)GlcNAc
# In short: as §1
# [26] = target: Neu5Ac(a2-3)Gal(b1-4)GlcNAc(b1-2)[Neu5Ac(a2-3)Gal(b1-4)GlcNAc(b1-4)]Man(a1-3)[GlcNAc(b1-4)][Neu5Ac(a2-3)Gal(b1-4)GlcNAc(b1-4)Man(a1-6)]Man(b1-4)GlcNAc(b1-4)GlcNAc
# In short: as §1
# [27] = target: Neu5Ac(a2-3)Gal(b1-4)GlcNAc(b1-2)[Neu5Ac(a2-3)Gal(b1-4)GlcNAc(b1-6)]Man(a1-6)[Neu5Ac(a2-3)Gal(b1-4)GlcNAc(b1-2)Man(a1-3)][GlcNAc(b1-4)]Man(b1-4)GlcNAc(b1-4)GlcNAc
# In short: as §1
# [28] = target: Neu5Ac(a2-3)Gal(b1-4)GlcNAc(b1-3)Gal
# In short: as §1
# [29] = target: Neu5Ac(a2-3)Gal(b1-4)GlcNAc(b1-3)Gal(b1-3)GlcNAc
# In short: as §1
# [30] = target: Neu5Ac(a2-3)Gal(b1-4)GlcNAc(b1-3)Gal(b1-4)GlcNAc
# In short: as §1
# [31] = target: Neu5Ac(a2-3)Gal(b1-4)GlcNAc(b1-3)Gal(b1-4)GlcNAc(b1-2)Man(a1-3)[Neu5Ac(a2-3)Gal(b1-4)GlcNAc(b1-3)Gal(b1-4)GlcNAc(b1-2)Man(a1-6)]Man(b1-4)GlcNAc(b1-4)GlcNAc
# In short: as §1
# [32] = target: Neu5Ac(a2-3)Gal(b1-4)GlcNAc(b1-3)Gal(b1-4)GlcNAc(b1-3)Gal(b1-4)GlcNAc
# In short: as §1
# [33] = target: Neu5Ac(a2-3)Gal(b1-4)GlcNAc(b1-3)Gal(b1-4)GlcNAc(b1-3)Gal(b1-4)GlcNAc(b1-2)Man(a1-3)[Neu5Ac(a2-3)Gal(b1-4)GlcNAc(b1-3)Gal(b1-4)GlcNAc(b1-3)Gal(b1-4)GlcNAc(b1-2)Man(a1-6)]GalNAc
# In short: as §1
# [34] = target: Neu5Ac(a2-3)Gal(b1-4)GlcNAc(b1-3)Gal(b1-4)GlcNAc(b1-3)GalNAc
# In short: as §1
# [35] = target: Neu5Ac(a2-3)Gal(b1-4)GlcNAc(b1-3)Gal(b1-4)GlcNAc(b1-3)[Neu5Ac(a2-3)Gal(b1-4)GlcNAc(b1-3)Gal(b1-4)GlcNAc(b1-6)]GalNAc
# In short: as §1
# [36] = target: Neu5Ac(a2-3)Gal(b1-4)GlcNAc(b1-3)Gal(b1-4)GlcNAc(b1-6)[Gal(b1-3)]GalNAc
# In short: as §1
# [37] = target: Neu5Ac(a2-3)Gal(b1-4)GlcNAc(b1-3)Gal(b1-4)[Fuc(a1-3)]GlcNAc
# In short: as §1
# [38] = target: Neu5Ac(a2-3)Gal(b1-4)GlcNAc(b1-3)GalNAc
# In short: as §1
binder,measurement,setting,value
B1,glycan array binding signal (z-score),[1],-0.578
same,glycan array binding signal (z-score),[2],-0.267
same,glycan array binding signal (z-score),[3],0.217
same,glycan array binding signal (z-score),[4],-0.465
same,glycan array binding signal (z-score),[5],-0.334
same,glycan array binding signal (z-score),[6],-0.39
same,glycan array binding signal (z-score),[7],-0.497
same,glycan array binding signal (z-score),[8],-0.475
same,glycan array binding signal (z-score),[9],0.976
same,glycan array binding signal (z-score),[10],0.604
same,glycan array binding signal (z-score),[11],-0.367
same,glycan array binding signal (z-score),[12],-0.034
same,glycan array binding signal (z-score),[13],0.337
same,glycan array binding signal (z-score),[14],-0.044
same,glycan array binding signal (z-score),[15],-0.424
same,glycan array binding signal (z-score),[16],0.369
same,glycan array binding signal (z-score),[17],1.05
same,glycan array binding signal (z-score),[18],0.776
same,glycan array binding signal (z-score),[19],-0.161
same,glycan array binding signal (z-score),[20],3.5
same,glycan array binding signal (z-score),[21],-1.24
same,glycan array binding signal (z-score),[22],0.022
same,glycan array binding signal (z-score),[23],-0.348
same,glycan array binding signal (z-score),[24],-0.194
same,glycan array binding signal (z-score),[25],-0.09
same,glycan array binding signal (z-score),[26],0.075
same,glycan array binding signal (z-score),[27],0.174
same,glycan array binding signal (z-score),[28],-0.834
same,glycan array binding signal (z-score),[29],-0.156
same,glycan array binding signal (z-score),[30],0.946
same,glycan array binding signal (z-score),[31],0.377
same,glycan array binding signal (z-score),[32],0.091
same,glycan array binding signal (z-score),[33],2.23
same,glycan array binding signal (z-score),[34],0.48
same,glycan array binding signal (z-score),[35],0.616
same,glycan array binding signal (z-score),[36],-1.15
same,glycan array binding signal (z-score),[37],-0.243
same,glycan array binding signal (z-score),[38],0.263

# 2 entries from above, set out differently.
binder | measurement | setting | value
B1 | glycan array binding signal (z-score) | [12] | -0.034
same | glycan array binding signal (z-score) | [13] | 0.337

# Reference: the supplement of paper PMC8728848
